{"source": "PubChem BioAssay AID504784 (Drosophila RNAi Screening Center, 2011)", "assay": "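Search for regulators of lipid droplet storage in oleate-fed fly cells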 (primary screen)", "system": "Drosophila Kc167 embryonic cells", "reagents": "long dsRNA against Drosophila genes, about 250 ng dsRNA per well", "time to read-out": "4 days", "conditions": "cells fed 400 µM oleic acid bound to BSA", "measured": "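Microscope images give a droplet-to-nucleus area ratio, taken as log and converted to a screen-wide B-score; higher values mean greater lipid storage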", "direction": "droplet/nuclear area B-score: higher = more stored lipid (overstorage)", "note": "The deposit covers about 17,000 reagents; this is an unselected part of those that have a named target and a result. 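Each column is one replicate's B-score; the combined score over replicates was not deposited, so single values may mislead.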 The numbers tell different reagents against one gene apart. Names joined by + are all predicted targets of the reagent. Not all columns of the deposit are shown."}
{"gene":"Ets21C (Ets at 21C)","reagent no.":1,"droplet/nuclear area B-score, replicate 1":-0.0912}
{"gene":"CG14645","reagent no.":1,"droplet/nuclear area B-score, replicate 1":1.04}
{"gene":"beat-IIIb (beaten path IIIb)","reagent no.":1,"droplet/nuclear area B-score, replicate 1":-1.29}
{"gene":"CG8229","reagent no.":1,"droplet/nuclear area B-score, replicate 1":-0.217}
{"gene":"CG17378","reagent no.":1,"droplet/nuclear area B-score, replicate 1":-1.73}
{"gene":"CG15337","reagent no.":1,"droplet/nuclear area B-score, replicate 1":0.461}
{"gene":"CG15337","reagent no.":2,"droplet/nuclear area B-score, replicate 1":-1.09}
{"gene":"CG34135 + Nasp","reagent no.":1,"droplet/nuclear area B-score, replicate 1":0.0221}
{"gene":"CG10026","reagent no.":1,"droplet/nuclear area B-score, replicate 1":-0.0514}
{"gene":"CG13606","reagent no.":1,"droplet/nuclear area B-score, replicate 1":1.17}
{"gene":"Spn28F (Serpin 28F)","reagent no.":1,"droplet/nuclear area B-score, replicate 1":-0.0469}
{"gene":"CG31229","reagent no.":1,"droplet/nuclear area B-score, replicate 1":1.52}
{"gene":"Sr-CIII (Scavenger receptor class C, type III)","reagent no.":1,"droplet/nuclear area B-score, replicate 1":1.01}
{"gene":"CG13036 (retired record)","reagent no.":1,"droplet/nuclear area B-score, replicate 1":-0.207}
{"gene":"CG15905","reagent no.":1,"droplet/nuclear area B-score, replicate 1":0.234}
{"gene":"Ripalpha (RPA-interacting protein alpha)","reagent no.":1,"droplet/nuclear area B-score, replicate 1":0.488}
{"gene":"CG9044","reagent no.":1,"droplet/nuclear area B-score, replicate 1":-0.485}
{"gene":"Pcyt1 (Phosphocholine cytidylyltransferase 1)","reagent no.":1,"droplet/nuclear area B-score, replicate 1":-1.62}

In a second layout: 6 of the entries above.
gene	reagent no.	droplet/nuclear area B-score, replicate 1
CG15337	2	-1.09
CG34135 + Nasp	1	0.0221
CG10026	1	-0.0514
CG13606	1	1.17
Spn28F (Serpin 28F)	1	-0.0469
CG31229	1	1.52

The results go on:
{"gene":"Cyp6t3 (Cytochrome P450 6t3)","reagent no.":1,"droplet/nuclear area B-score, replicate 1":0.0106}
{"gene":"Patj","reagent no.":1,"droplet/nuclear area B-score, replicate 1":-0.866}
{"gene":"CG18179","reagent no.":1,"droplet/nuclear area B-score, replicate 1":0.307}
{"gene":"pigs (pickled eggs)","reagent no.":1,"droplet/nuclear area B-score, replicate 1":-0.917}
{"gene":"pigs (pickled eggs)","reagent no.":2,"droplet/nuclear area B-score, replicate 1":-0.495}
{"gene":"pigs (pickled eggs)","reagent no.":3,"droplet/nuclear area B-score, replicate 1":1.09}
{"gene":"fray (frayed)","reagent no.":1,"droplet/nuclear area B-score, replicate 1":-0.502}
{"gene":"Nhe3 (Na[+]/H[+] hydrogen exchanger 3)","reagent no.":1,"droplet/nuclear area B-score, replicate 1":-0.621}
{"gene":"CG33342 (HDC15381)","reagent no.":1,"droplet/nuclear area B-score, replicate 1":-0.311}
{"gene":"x16 (x16 splicing factor)","reagent no.":1,"droplet/nuclear area B-score, replicate 1":-0.293}
{"gene":"x16 (x16 splicing factor)","reagent no.":2,"droplet/nuclear area B-score, replicate 1":-0.891}
{"gene":"spi (spitz)","reagent no.":1,"droplet/nuclear area B-score, replicate 1":-0.377}
{"gene":"CG17145","reagent no.":1,"droplet/nuclear area B-score, replicate 1":-1.52}
{"gene":"Dp1 (Dodeca-satellite-binding protein 1)","reagent no.":1,"droplet/nuclear area B-score, replicate 1":0.262}
{"gene":"CG34382","reagent no.":1,"droplet/nuclear area B-score, replicate 1":-0.148}
{"gene":"CG34382","reagent no.":2,"droplet/nuclear area B-score, replicate 1":0.758}
{"gene":"Acbp5 (Acyl-CoA binding protein 5)","reagent no.":1,"droplet/nuclear area B-score, replicate 1":0.794}
{"gene":"Eig71Ee (Ecdysone-induced gene 71Ee)","reagent no.":1,"droplet/nuclear area B-score, replicate 1":-1.3}
{"gene":"GstT1 (Glutathione S transferase T1)","reagent no.":1,"droplet/nuclear area B-score, replicate 1":-0.283}
{"gene":"TBC1D23 (TBC1 domain family member 23)","reagent no.":1,"droplet/nuclear area B-score, replicate 1":1.8}
{"gene":"Karl","reagent no.":1,"droplet/nuclear area B-score, replicate 1":-0.813}
{"gene":"CG5543","reagent no.":1,"droplet/nuclear area B-score, replicate 1":-1.26}
